The text below walks through data of patent US20150218258.

Where cells or extracts were used, other partners may take part. No signal at the amounts used counts as a negative. For some assays here: Protein sequences can lack the tags named with them. For some assays here: For at least one entry, the source does not settle the construct or the ends of the probe.

In series [1] the test system is membrane-bound IgM (mIgM, B-cell receptor) on Ramos cells. Nature of the series: flow cytometry. The settings on record: Ramos cells, on ice, protein on the cell surface, single-stranded DNA.
Series [2] deals with T1, PTK7 (protein tyrosine kinase 7) on Jurkat cells (UniProt Q13308).
T1 sequence (looked up, limits assumed): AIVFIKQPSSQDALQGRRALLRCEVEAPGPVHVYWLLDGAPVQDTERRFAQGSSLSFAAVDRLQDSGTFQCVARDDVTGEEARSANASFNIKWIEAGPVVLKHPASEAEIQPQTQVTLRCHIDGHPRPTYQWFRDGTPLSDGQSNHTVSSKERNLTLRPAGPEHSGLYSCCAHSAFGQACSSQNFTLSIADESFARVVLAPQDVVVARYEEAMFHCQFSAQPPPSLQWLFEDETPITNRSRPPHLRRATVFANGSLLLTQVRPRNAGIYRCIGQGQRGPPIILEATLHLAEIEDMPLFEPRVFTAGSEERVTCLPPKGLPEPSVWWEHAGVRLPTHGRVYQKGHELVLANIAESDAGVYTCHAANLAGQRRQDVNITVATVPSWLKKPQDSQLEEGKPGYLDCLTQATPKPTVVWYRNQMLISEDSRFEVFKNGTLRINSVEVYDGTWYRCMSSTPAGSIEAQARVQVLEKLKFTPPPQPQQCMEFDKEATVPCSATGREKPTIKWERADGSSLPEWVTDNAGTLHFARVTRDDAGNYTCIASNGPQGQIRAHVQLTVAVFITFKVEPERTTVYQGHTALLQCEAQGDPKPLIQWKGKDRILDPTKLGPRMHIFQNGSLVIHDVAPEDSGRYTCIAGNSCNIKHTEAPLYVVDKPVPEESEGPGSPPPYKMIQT
Nature of the series: flow cytometry. The settings on record: Jurkat cells, on ice, protein on the cell surface, single-stranded DNA.

[3] abbreviates: 5' thiol linked to human IgG1 AKT-Fc N-terminus (hydrazone or oxidative coupling), Fc-M2M2 scrambled control.

For “AGGAGGATAGTTCGGTGGCTGTTCAGGGTCTCCTCCT [TD05.1 anti-HER2 antibody conjugate]”, the binding result in series [1] (linked to anti-HER2 human IgG1 via N-terminus or lysine by oxidative coupling, antibody-aptamer conjugate, 5 mM MgCl2 DPBS, variant of TD05.1) is given as “binds”.

Turning to “ATCTAACTGCTGCGCCGCCGGGAAAATACTGTACGGTTAGA [sgc8c anti-HER2 antibody conjugate]”, the binding result in series [2] (linked to anti-HER2 human IgG1 via N-terminus or lysine by oxidative coupling, antibody-aptamer conjugate, 5 mM MgCl2 DPBS, variant of sgc8c) was “binds”.

With “CCCTAGAGTGAGTCGTATGACCCTAGAGTGAGTCGTATGAA [M2M2]”, the binding result in series [1] (setting [3]) and in series [2] (setting [3]) was “no binding” in each case.

Turning to “AGGAGGATAGTTCGGTGGCTGTTCAGGGTCTCCTCCT [TD05.1]”, the binding result in series [1] (5' thiol linked to human IgG1 AKT-Fc N-terminus (hydrazone or oxidative coupling), Fc-TD05.1 conjugate, 5 mM MgCl2 DPBS with tRNA and BSA, no binding to U266 cells) was “binds”; in series [2] (5' thiol linked to human IgG1 AKT-Fc N-terminus (hydrazone or oxidative coupling), Fc-TD05.1 conjugate), “no binding”.

In the case of “ATCTAACTGCTGCGCCGCCGGGAAAATACTGTACGGTTAGA [sgc8c]”, the binding result in series [1] (5' thiol linked to human IgG1 AKT-Fc N-terminus (hydrazone or oxidative coupling), Fc-sgc8c conjugate) is listed as “no binding”; in series [2] (5' thiol linked to human IgG1 AKT-Fc N-terminus (hydrazone or oxidative coupling), Fc-sgc8c conjugate, 5 mM MgCl2 DPBS with tRNA and BSA, no binding to U266 cells), “binds”.
